Drawing on PubChem BioAssay AID2685 (National Center for Advancing Translational Sciences (NCATS), 2010), this text covers cell number change and AC50 for 61 compounds.

The other results are listed elsewhere or left out. Shown are side measurements of this screen, not its main read-out; they come without a call. Compounds called inactive in the main read-out are mostly missing here. Potencies come from curve fits of mixed quality, noted in brackets.

The assay can be described thus: qHTS Assay for Lipid Storage Modulators in Drosophila S3 Cells.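 As to cell number change: cells counted by Cell Tracker Red CMTPX staining in the red channel.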 The settings on record: BODIPY lipid droplet fluorescence, 18-24 h; for cell number change: measured here: cell count max response, cells fed with added oleic acid. The method in brief:
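Drosophila S3 cells loaded with oleic acid (400 uM, as added) and compounds at several concentrations; lipid droplets imaged by 488-nm laser-scanning cytometry, 500–530 nm intensity and object ratio to cell channel. Percent activity normalized to 20 uM Triacsin C.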
For orientation: qHTS replaces the single test concentration by a dilution series.

The mark [1] stands for this setting: measured here: lipid fluorescence (Fed channel) AC50, cells fed with added oleic acid.
Where [2] appears, read: measured here: cell number channel AC50, cells fed with added oleic acid.

For `CCOc1ccccc1N1CCN(CC(=O)NC(=O)NCc2ccco2)CC1`, the cell number change was -8.55%. Further, the concentration at half-maximal activity (AC50) under setting [1] is 0.82 µM [falling, full curve, poor fit].
Consider `COc1ccccc1C(=O)COC(=O)Cc1c[nH]c2ccccc12`, for which the AC50 was 3.26 µM [rising, single point] under setting [2] and 3.66 µM [falling, single point] under setting [1].
As to `COc1ccc2c(c1)c1nnc(SCC(=O)N3C(C)CCCC3C)nc1n2C` (stereo unspecified), the cell number change is -67.3%. Further, the AC50 under setting [2] is 2.91 µM [falling, full curve]. For the same compound, the half-maximal activity concentration (AC50) under setting [1] is 1.3 µM [falling, full curve].
For `Cc1ccc(N=C(NOC(=O)c2ccccc2)c2nonc2N)c(C)c1`, the cell number change was -11.5%. Also, the AC50 under setting [1] was 0.0651 µM [falling, full curve, poor fit].
For the compound `Cc1ccc2nc(N3CC(C)OC(C)C3)nc(-c3ccccc3)c2c1` (stereo unspecified), the cell number change worked out at 12.8%. Also, the AC50 under setting [1] is 20.6 µM [rising, single point].
As for `CCOC(=O)C(=NC1CCS(=O)(=O)C1)NNc1ccc(Br)cc1` (stereo unspecified), under setting [1], the concentration at half-maximal activity (AC50) was 29.1 µM [rising, single point].
Consider `O=C(O)c1ccc(NS(=O)(=O)c2cccc(S(=O)(=O)c3ccc(Cl)c(Cl)c3)c2)cc1`, for which the cell number change is 8.26%.
Turning to `O=C(C[n+]1cc(-c2ccc(Cl)cc2)n2c1CCC2)Nc1nc(-c2ccccc2)cs1`, the cell number change came out at 12.2%. In addition, the concentration at half-maximal activity (AC50) under setting [1] was 0.184 µM [rising, full curve, poor fit].
Take `C=CCN=C1NN=C(c2cc(C)n(CC=C)c2C)CS1`: the cell number change was 28.9%.
As to `CC1=C(C(=O)OC(C)C)C(c2ccc(F)cc2)NC(=O)N1` (stereo unspecified), the cell number change was -45.5%. In addition, the half-maximal activity concentration (AC50) under setting [2] was 13 µM [falling, partial curve]. Also, the half-maximal activity concentration (AC50) under setting [1] was 11.6 µM [falling, partial curve].
Turning to `COc1ccc(Nc2ccc([N+](=O)[O-])cn2)cn1`, the AC50 under setting [1] is 10.3 µM [falling, partial curve, poor fit].
On to `COCCN(C(=O)C1CCC1)c1nnc(-c2cccnc2)s1`, for which the cell number change was -11.7%. Besides, the AC50 under setting [1] is 6.51 µM [rising, full curve].
For the compound `Cc1c(C)[n+](=O)c2c(n1[O-])C(Br)CCC2Br` (stereo unspecified), the cell number change was found to be 28.9%. For the same compound, under setting [1], the AC50 was 29.1 µM [rising, single point].
With `COc1ccccc1OCCNC(=O)c1cc(F)c(F)cc1Cl`, the cell number change is -1.99%. For the same compound, the AC50 under setting [1] was 11.6 µM [rising, partial curve].
Turning to `Cn1cccc1C(=O)NC(=O)CSc1cccc[n+]1[O-]`, the cell number change was -4.96%.
Regarding `Cn1c(=N)n(CC(=O)c2ccc(Cl)c(Cl)c2)c2ccccc21`, the cell number change was found to be 40.5%. Moreover, the AC50 under setting [2] was 14.6 µM [rising, partial curve, poor fit].
As to `COc1ccc(C(=O)NCC(=O)NCC(=O)OCC(=O)c2ccc(C)cc2)cc1`, the AC50 under setting [1] is 2.91 µM [rising, single point].
As to `Cc1nc(C(=O)NC2CC2)sc1C1(C)CC(c2ccccc2)=NO1` (stereo unspecified), the cell number change is -0.349%.
Take `Cc1nc2c(cc1C(=O)N/N=C/c1ccc(O)c(O)c1)c(=O)n(C)c(=O)n2C`: the cell number change was determined as 13.5%. Also, the AC50 under setting [2] was 2.91 µM [rising, partial curve]. Also, the AC50 under setting [1] is 0.0164 µM [rising, full curve, poor fit].
Regarding `CN(C(=O)COC(=O)c1cc(S(=O)(=O)N2CCOCC2)c(Cl)cc1Cl)C1CCS(=O)(=O)C1` (stereo unspecified), the cell number change is -38.7%. In addition, the AC50 under setting [2] was 6.51 µM [falling, single point]. For the same compound, the half-maximal activity concentration (AC50) under setting [1] is 6.51 µM [falling, single point].
Turning to `CC(=O)Nc1ccc(NC(=O)COc2ccc([N+](=O)[O-])cc2)cc1`, the cell number change is -14%. The concentration at half-maximal activity (AC50) under setting [2] is 6.51 µM [falling, partial curve, poor fit].
For the compound `CCC(C)[C@H](NC(=O)[C@@H]1Cc2ccccc2CN1)C(=O)Nc1ccc2c(c1)OCO2` (stereo partly specified), the cell number change was 1.14%. In addition, the AC50 under setting [1] was 29.1 µM [rising, single point].
In the case of `C=CCn1c(COc2cccc3ccc(C)nc23)nnc1SCC(N)=O`, the cell number change was found to be 128%. Also, the AC50 under setting [2] is 20.6 µM [rising, partial curve].
As for `CCCCCCCCCCOC(=O)Cn1c(COc2ccc(Cl)cc2)[n+](C)c2ccccc21`, the cell number change is -76.3%. The AC50 under setting [2] was 9.2 µM [falling, partial curve]. The AC50 under setting [1] is 13 µM [falling, partial curve].
In the case of `CC(NC(=O)CCCCCNC(=O)N1CCn2c1nc1ccccc12)c1ccccc1` (stereo unspecified), the cell number change was -25.4%. Besides, the AC50 under setting [1] was 16.4 µM [falling, single point].
With `CC(C)c1[nH]nc2c1C(c1cccnc1)C(C#N)=C(N)O2` (stereo unspecified), the cell number change was -4.42%.
For the compound `N#CCCn1cc(C(=O)N2CCCCC2)c(-c2ccc([N+](=O)[O-])cc2)n1`, the cell number change was found to be 76%. In addition, the concentration at half-maximal activity (AC50) under setting [1] was 0.092 µM [falling, full curve, poor fit].
Regarding `Cc1ccc(C(=O)NCC(=O)NCC(=O)OCC(=O)c2ccc(F)cc2)cc1`, the cell number change came to 7.57%. Besides, the AC50 under setting [1] is 1.03 µM [rising, full curve, poor fit].
Regarding `O=C(c1ccc2nc(Cc3cccc(Cl)c3)oc2c1)N1CCC(CO)CC1`, the cell number change came to 5.81%. Besides, the AC50 under setting [1] is 0.00651 µM [falling, full curve, poor fit].
For the compound `O=C(NCCCN1CCOCC1)c1ccc(CS(=O)(=O)Cc2ccc(Cl)cc2)o1`, the cell number change is -135%. For the same compound, the AC50 under setting [2] was 25.9 µM [falling, partial curve]. In addition, the AC50 under setting [1] is 16.4 µM [falling, partial curve].
Regarding `COc1cc(C(=O)NCCC(c2ccccc2)c2ccccc2)cc(OC)c1OC`, the cell number change amounted to 7.77%. For the same compound, under setting [1], the AC50 is 29.1 µM [falling, single point].
In the case of `CCOc1ccc(C(=O)N2CCN(CC(=O)N3CCCC3)CC2)cc1OCC`, the cell number change was -19.4%.
As to `Cc1ccc(CCN2CC(C(=O)NCCCN3CCOCC3)CC2=O)cc1` (stereo unspecified), the cell number change was -27.5%. Moreover, the AC50 under setting [1] was 16.4 µM [falling, partial curve].
For the compound `CCCCN1C(=O)NC(NS(=O)(=O)c2ccc(N)cc2)(C(F)(F)F)C1=O` (stereo unspecified), the cell number change is -40.5%. For the same compound, the half-maximal activity concentration (AC50) under setting [2] was 29.1 µM [falling, single point]. Besides, under setting [1], the AC50 is 6.51 µM [falling, single point].
`CC(C)(C)C(=O)NC(=S)NNC(=O)c1ccncc1`: the cell number change worked out at 0.709%.
On the same count and under the same terms, then `Cc1ccc(C)c(Nc2ccc3nonc3c2[N+](=O)[O-])c1`, with -18%.
Regarding `Nn1cnnc1N/N=C\c1ccc(-c2ccccc2[N+](=O)[O-])o1`, the cell number change was -18.3%. In addition, the AC50 under setting [1] is 0.13 µM [rising, full curve, poor fit].
As to `CCc1ccc2[nH]c(=O)c(CN(CCN(C)C)C(=O)Nc3ccccc3OC)cc2c1`, the cell number change is 11.4%. Also, the AC50 under setting [2] is 0.0731 µM [falling, full curve, poor fit].
`COc1ccc(OC)c(CCNC(=O)C(C)n2nc(C)c3c(C)n(-c4ccccc4)nc3c2=O)c1` (stereo unspecified): the cell number change was -4.72%. The AC50 under setting [2] was 2.91 µM [rising, partial curve].
In the case of `CCOC(=O)C(C)Sc1nnc(NC(=O)c2ccc3c(c2)OCO3)s1` (stereo unspecified), the cell number change was found to be 16.1%. Further, the half-maximal activity concentration (AC50) under setting [1] was 29.1 µM [rising, single point].
In the case of `CCN(C(=O)c1cccc(F)c1)c1ccccc1C`, the cell number change was -3.13%.
As to `Nc1ccccc1N1CCOCC1`, the cell number change was -54.6%. The AC50 under setting [2] is 3.66 µM [falling, full curve]. For the same compound, the concentration at half-maximal activity (AC50) under setting [1] is 3.66 µM [falling, full curve].
In the case of `COc1ccc(N2C(=O)C3C4C=CC(C4)C3C2=O)nn1` (stereo unspecified), the cell number change was -24.7%.
`CC(C)c1c(C(=O)N/N=C/c2ccc(OCc3ccc(F)cc3)cc2)nnn1-c1nonc1N`: the cell number change was found to be 13.7%. For the same compound, the AC50 under setting [1] was 29.1 µM [falling, single point].
As for `O=C(NC1CCN(Cc2ccccc2)CC1)C1CCN(S(=O)(=O)c2ccccc2)CC1`, the cell number change stood at 2.78%. In addition, the concentration at half-maximal activity (AC50) under setting [1] was 29.1 µM [falling, single point].
For `Fc1cccc(Nc2ncnc3sc4c(c23)CCC4)c1`, the cell number change is 38.4%. Under setting [2], the concentration at half-maximal activity (AC50) is 0.58 µM [rising, full curve]. Moreover, under setting [1], the half-maximal activity concentration (AC50) is 0.411 µM [rising, full curve, poor fit].
On to `Cc1nnc(SCc2nc3sc4c(c3c(=O)[nH]2)CCCC4)[nH]c1=O`, for which the cell number change is 17.2%.
`CCCCCCCc1nc2nc(C)c(Br)c(=O)n2[nH]1`: the cell number change is -11.7%.
In the case of `COC(=O)CNC(=O)CNC(=O)c1nn(-c2ccc(OC)c(Cl)c2)c(=O)c2ccccc12`, the cell number change is 4.14%.
For the compound `C=CCNCCOc1cccc(Br)c1`, the AC50 runs as follows: under setting [2], 0.326 µM [falling, partial curve, poor fit]; under setting [1], 29.1 µM [falling, single point].
As for `CSc1nc2ccccc2cc1/C=C(\C#N)c1cccc(Cl)c1`, the cell number change came out at 164%. The concentration at half-maximal activity (AC50) under setting [2] is 29.1 µM [rising, single point]. Besides, the AC50 under setting [1] is 23.1 µM [rising, partial curve].
On to `Cc1ccccc1C(=O)NNC(=O)C1CCCN(c2ncccn2)C1` (stereo unspecified), for which the cell number change turned out to be 10.9%.
On to `CNC(=O)CSc1nc2cccnc2n1C1CCCCC1`, for which the cell number change is -2.62%. For the same compound, the concentration at half-maximal activity (AC50) under setting [1] is 1.03 µM [falling, single point].
For the compound `CCOc1ccccc1CN1CCC(O)CC1`, the cell number change is -52.4%. Besides, under setting [2], the AC50 is 0.731 µM [falling, full curve, poor fit]. In addition, under setting [1], the concentration at half-maximal activity (AC50) is 0.731 µM [falling, full curve].
Take `O=C(NCc1ccc(Cl)cc1)c1ccc(NC(=O)C2CCCO2)cc1` (stereo unspecified): under setting [1], the AC50 was 0.58 µM [rising, partial curve, poor fit].
For `CCOc1ccc(NC(=O)CN2CCN(CC(=O)Nc3cc(OC)cc(OC)c3)CC2)cc1`, the cell number change came out at 19.5%. The concentration at half-maximal activity (AC50) under setting [1] was 29.1 µM [rising, single point].
`CCOc1ccc(N2CC(C(=O)Nc3nnc(SCCOC)s3)CC2=O)cc1` (stereo unspecified): the cell number change was -10.5%. Moreover, under setting [1], the AC50 was 3.16 µM [falling, single point].
Consider `Cc1ccc2cc(C#N)c(NCc3ccco3)nc2c1`, for which the cell number change is 19.7%.
As for `Cc1cc(C)c(C)c(S(=O)(=O)N2CCC(C(=O)NNC(=O)c3ccccc3O)CC2)c1C`, the cell number change was 132%. In addition, the half-maximal activity concentration (AC50) under setting [2] is 29.1 µM [rising, single point].
Consider `C[C@@H](CSc1ccc(Br)cc1)CN1CC[C@H](C(C)(C)C)CCC1=O`, for which the cell number change is -59.8%. Further, the AC50 under setting [2] was 29.1 µM [falling, single point]. Moreover, the AC50 under setting [1] is 3.66 µM [rising, partial curve, poor fit].
`COc1ccccc1C(=O)Nc1sc(C(=O)N2CCCC2)c(C)c1C#N`: the cell number change was -62.9%. Also, the AC50 under setting [2] is 4.61 µM [falling, full curve]. For the same compound, the half-maximal activity concentration (AC50) under setting [1] is 2.59 µM [falling, full curve, poor fit].

What is called AC50 is the concentration at which the activity in the assay is half-maximal. A lower AC50 goes with greater potency.
